{"source": "PubChem BioAssay AID1159578 (Peter MacCallum Cancer Centre, 2015)", "test": "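siRNA pools altering how lymphatic endothelial cells close a scratch wound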 (primary screen)", "cell system": "human lymphatic endothelial cells", "reagents": "siRNA pool against human genes, 40 nM", "time to read-out": "48 h after transfection", "measurement": "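Cells stained with dye and imaged after a scratch; covered wound area and nuclei counted, duplicates averaged, migration set against mock wells and turned into a robust z-score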", "scale": "migration robust z-score: higher = faster migration into the scratch; nuclei per well: higher = more cells in the well", "active means": "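Migration changed when robust z exceeds 2 or falls below -2 and mean nuclei number is at least 3300; otherwise not called changed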", "meaning of the calls": "active = migration changed; inactive = no migration change, or too few cells", "note": "The whole screen tested about 18,000 reagents; below is a random part of them. About 1,030 of them (5.7%) count as active. 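Inactive calls also include pools with fewer than 3300 nuclei, whose migration was not assessed.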 The raw values are shown without normalisation. Further read-outs or replicates are left out here."}
{"Gene":"CHAF1A (GeneID 10036)","migration robust z-score":-0.86,"migration class with cell-count check":"migration z between -2 and 2; enough cells","nuclei per well, duplicate mean":4096,"Call":"inactive"}
{"Gene":"UBAP2 (GeneID 55833)","migration robust z-score":0.09,"migration class with cell-count check":"migration z between -2 and 2; enough cells","nuclei per well, duplicate mean":4986,"Call":"inactive"}
{"Gene":"ARK2N (GeneID 147339)","migration robust z-score":-1.86,"migration class with cell-count check":"migration z between -2 and 2; enough cells","nuclei per well, duplicate mean":6288,"Call":"inactive"}
{"Gene":"OR8B4 (GeneID 283162)","migration robust z-score":0.82,"migration class with cell-count check":"migration z between -2 and 2; enough cells","nuclei per well, duplicate mean":6087,"Call":"inactive"}
{"Gene":"ITGB3BP (GeneID 23421)","migration robust z-score":0.94,"migration class with cell-count check":"migration z between -2 and 2; enough cells","nuclei per well, duplicate mean":6854,"Call":"inactive"}
{"Gene":"SUDS3 (GeneID 64426)","migration robust z-score":0.31,"migration class with cell-count check":"migration z between -2 and 2; enough cells","nuclei per well, duplicate mean":5866,"Call":"inactive"}
{"Gene":"NUDT11 (GeneID 55190)","migration robust z-score":-0.99,"migration class with cell-count check":"migration z between -2 and 2; enough cells","nuclei per well, duplicate mean":6481,"Call":"inactive"}
{"Gene":"LGR5 (GeneID 8549)","migration robust z-score":0.46,"migration class with cell-count check":"migration z between -2 and 2; enough cells","nuclei per well, duplicate mean":6613,"Call":"inactive"}
{"Gene":"PMS2P3 (GeneID 5387)","migration robust z-score":0.25,"migration class with cell-count check":"migration z between -2 and 2; enough cells","nuclei per well, duplicate mean":6010,"Call":"inactive"}
{"Gene":"CAMK1G (GeneID 57172)","migration robust z-score":0.15,"migration class with cell-count check":"migration z between -2 and 2; enough cells","nuclei per well, duplicate mean":5408,"Call":"inactive"}
{"Gene":"LAMB3 (GeneID 3914)","migration robust z-score":-2.96,"migration class with cell-count check":"migration z below -2; enough cells","nuclei per well, duplicate mean":4315,"Call":"active"}
{"Gene":"CDH8 (GeneID 1006)","migration robust z-score":0.35,"migration class with cell-count check":"migration z between -2 and 2; enough cells","nuclei per well, duplicate mean":5798,"Call":"inactive"}
{"Gene":"NOC4L (GeneID 79050)","migration robust z-score":1.73,"migration class with cell-count check":"migration z between -2 and 2; enough cells","nuclei per well, duplicate mean":5378,"Call":"inactive"}
{"Gene":"HSD11B1L (GeneID 374875)","migration robust z-score":-0.24,"migration class with cell-count check":"migration z between -2 and 2; enough cells","nuclei per well, duplicate mean":4899,"Call":"inactive"}
{"Gene":"FNIP1 (GeneID 96459)","migration robust z-score":1.75,"migration class with cell-count check":"migration z between -2 and 2; enough cells","nuclei per well, duplicate mean":4378,"Call":"inactive"}
{"Gene":"GPRIN3 (GeneID 285513)","migration robust z-score":1.08,"migration class with cell-count check":"migration z between -2 and 2; enough cells","nuclei per well, duplicate mean":3996,"Call":"inactive"}
{"Gene":"ZNF461 (GeneID 92283)","migration robust z-score":0.64,"migration class with cell-count check":"migration z between -2 and 2; enough cells","nuclei per well, duplicate mean":6529,"Call":"inactive"}
{"Gene":"GIMAP1 (GeneID 170575)","migration robust z-score":0.47,"migration class with cell-count check":"migration z between -2 and 2; enough cells","nuclei per well, duplicate mean":5768,"Call":"inactive"}
{"Gene":"AAMP (GeneID 14)","migration robust z-score":1.38,"migration class with cell-count check":"migration z between -2 and 2; enough cells","nuclei per well, duplicate mean":5562,"Call":"inactive"}
{"Gene":"LGALS2 (GeneID 3957)","migration robust z-score":-1.09,"migration class with cell-count check":"migration z between -2 and 2; enough cells","nuclei per well, duplicate mean":5702,"Call":"inactive"}
{"Gene":"OIT3 (GeneID 170392)","migration robust z-score":0.36,"migration class with cell-count check":"migration z between -2 and 2; enough cells","nuclei per well, duplicate mean":5302,"Call":"inactive"}

Copied from above (2 entries):
{"Gene":"ARK2N (GeneID 147339)","migration robust z-score":-1.86,"migration class with cell-count check":"migration z between -2 and 2; enough cells","nuclei per well, duplicate mean":6288,"Call":"inactive"}
{"Gene":"OR8B4 (GeneID 283162)","migration robust z-score":0.82,"migration class with cell-count check":"migration z between -2 and 2; enough cells","nuclei per well, duplicate mean":6087,"Call":"inactive"}
